# Measurements as given in publication PMC12646668.
# Sequences of proteins named here, by UniProt entry; tags and fusion partners are left off. A change or cut given only in a name is not applied to a line headed by its entry.
# UniProt P52630: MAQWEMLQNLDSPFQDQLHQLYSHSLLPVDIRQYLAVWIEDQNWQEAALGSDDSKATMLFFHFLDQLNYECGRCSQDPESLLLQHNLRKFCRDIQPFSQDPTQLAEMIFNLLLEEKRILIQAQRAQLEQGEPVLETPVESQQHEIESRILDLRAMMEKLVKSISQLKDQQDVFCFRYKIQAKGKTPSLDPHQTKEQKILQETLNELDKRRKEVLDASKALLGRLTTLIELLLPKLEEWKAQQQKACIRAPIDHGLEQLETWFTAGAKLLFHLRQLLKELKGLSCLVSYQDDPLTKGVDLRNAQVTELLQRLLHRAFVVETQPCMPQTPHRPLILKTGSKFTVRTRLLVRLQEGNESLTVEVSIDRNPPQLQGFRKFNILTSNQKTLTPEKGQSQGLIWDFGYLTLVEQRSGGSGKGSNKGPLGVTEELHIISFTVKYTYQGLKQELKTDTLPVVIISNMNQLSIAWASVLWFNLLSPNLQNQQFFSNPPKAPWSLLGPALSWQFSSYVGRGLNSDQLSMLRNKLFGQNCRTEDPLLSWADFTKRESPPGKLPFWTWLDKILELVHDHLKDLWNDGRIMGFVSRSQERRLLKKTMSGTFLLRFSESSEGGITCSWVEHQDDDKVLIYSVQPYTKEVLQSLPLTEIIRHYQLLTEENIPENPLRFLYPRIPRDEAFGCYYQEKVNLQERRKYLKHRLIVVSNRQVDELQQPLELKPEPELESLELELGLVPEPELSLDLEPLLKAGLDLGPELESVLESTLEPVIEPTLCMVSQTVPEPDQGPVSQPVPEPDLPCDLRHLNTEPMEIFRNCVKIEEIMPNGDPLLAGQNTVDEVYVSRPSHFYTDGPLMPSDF
# UniProt P45974: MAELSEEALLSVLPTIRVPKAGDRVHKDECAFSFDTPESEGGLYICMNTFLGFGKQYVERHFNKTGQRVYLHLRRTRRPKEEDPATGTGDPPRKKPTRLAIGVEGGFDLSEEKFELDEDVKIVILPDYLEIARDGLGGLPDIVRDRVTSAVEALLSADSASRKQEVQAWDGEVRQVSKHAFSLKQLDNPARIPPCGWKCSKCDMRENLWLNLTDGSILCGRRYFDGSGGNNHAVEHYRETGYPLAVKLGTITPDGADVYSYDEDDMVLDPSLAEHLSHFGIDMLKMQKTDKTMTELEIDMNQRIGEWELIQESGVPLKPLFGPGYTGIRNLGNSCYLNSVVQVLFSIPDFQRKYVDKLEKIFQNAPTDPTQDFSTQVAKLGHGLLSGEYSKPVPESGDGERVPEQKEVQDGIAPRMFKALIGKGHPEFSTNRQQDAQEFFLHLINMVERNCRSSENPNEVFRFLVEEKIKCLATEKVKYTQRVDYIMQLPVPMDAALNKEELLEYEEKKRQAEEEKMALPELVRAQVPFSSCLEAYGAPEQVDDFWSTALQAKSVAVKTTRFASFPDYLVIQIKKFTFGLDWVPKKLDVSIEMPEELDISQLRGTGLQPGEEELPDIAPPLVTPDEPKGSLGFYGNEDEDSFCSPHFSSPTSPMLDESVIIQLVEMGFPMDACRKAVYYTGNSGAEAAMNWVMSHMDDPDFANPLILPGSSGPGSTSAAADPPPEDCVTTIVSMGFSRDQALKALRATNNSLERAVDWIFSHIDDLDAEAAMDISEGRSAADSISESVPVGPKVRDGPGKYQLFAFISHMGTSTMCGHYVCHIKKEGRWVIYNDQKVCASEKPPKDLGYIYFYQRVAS
# Results are given in words; binding and its absence hold for the method and conditions named. In cells and extracts the contact can be indirect.
# Biological target: FLAG-tagged Y690A-STAT2 (human) (UniProt P52630)
# Assay: co-IP; SUNE1 cells transfected with WT or mutant STAT2, IFN-β treated; IP lysis buffer, indicated antibodies overnight at 4°C, Protein A/G magnetic beads, Western blot
substance,measurement,value
USP5 (from UniProt P45974 1-858) (enzyme),binding,no binding
